Assay [1] concerns the target T1, surface-expressed mouse αvβ8 (mouse) (UniProt P43406+Q0VBD0). Briefly: FACS titration on murine astrocytes, fluorescently-labeled secondary antibody.
Assay [2] concerns the target T2, recombinant mouse αvβ8 (mouse) (UniProt P43406+Q0VBD0). The assay is described as follows: bio-layer interferometry, IgG loaded on anti-human Fab-CH1 tips, αvβ8 at 200 nM in solution. In general terms: BLI is a label-free optical method that tracks binding on a fibre tip over time.
Assay [3] addresses T2, recombinant mouse αvβ8 (mouse). The assay is described as follows: bio-layer interferometry.
The target is the same in assay [4]. The assay is described as follows: bio-layer interferometry (legend of FIGS. 5A and 5B).
The target is the same in assay [5]. The assay is described as follows: bio-layer interferometry, IgG loaded on anti-human Fab-CH1 tips, mouse αvβ8 at 200 nM in solution.
Assay [6] addresses T1, surface-expressed mouse αvβ8 (mouse). The assay is described as follows: FACS on murine astrocytes (legend of FIG. 7).
Assay [7] has the same target. The assay is described as follows: FACS on murine astrocytes.

The chains behind the UniProt entries cited, without tags or fusion partners. Where a name states a change or a piece, a line headed by the entry shows the natural chain unless it says otherwise.
UniProt P43406: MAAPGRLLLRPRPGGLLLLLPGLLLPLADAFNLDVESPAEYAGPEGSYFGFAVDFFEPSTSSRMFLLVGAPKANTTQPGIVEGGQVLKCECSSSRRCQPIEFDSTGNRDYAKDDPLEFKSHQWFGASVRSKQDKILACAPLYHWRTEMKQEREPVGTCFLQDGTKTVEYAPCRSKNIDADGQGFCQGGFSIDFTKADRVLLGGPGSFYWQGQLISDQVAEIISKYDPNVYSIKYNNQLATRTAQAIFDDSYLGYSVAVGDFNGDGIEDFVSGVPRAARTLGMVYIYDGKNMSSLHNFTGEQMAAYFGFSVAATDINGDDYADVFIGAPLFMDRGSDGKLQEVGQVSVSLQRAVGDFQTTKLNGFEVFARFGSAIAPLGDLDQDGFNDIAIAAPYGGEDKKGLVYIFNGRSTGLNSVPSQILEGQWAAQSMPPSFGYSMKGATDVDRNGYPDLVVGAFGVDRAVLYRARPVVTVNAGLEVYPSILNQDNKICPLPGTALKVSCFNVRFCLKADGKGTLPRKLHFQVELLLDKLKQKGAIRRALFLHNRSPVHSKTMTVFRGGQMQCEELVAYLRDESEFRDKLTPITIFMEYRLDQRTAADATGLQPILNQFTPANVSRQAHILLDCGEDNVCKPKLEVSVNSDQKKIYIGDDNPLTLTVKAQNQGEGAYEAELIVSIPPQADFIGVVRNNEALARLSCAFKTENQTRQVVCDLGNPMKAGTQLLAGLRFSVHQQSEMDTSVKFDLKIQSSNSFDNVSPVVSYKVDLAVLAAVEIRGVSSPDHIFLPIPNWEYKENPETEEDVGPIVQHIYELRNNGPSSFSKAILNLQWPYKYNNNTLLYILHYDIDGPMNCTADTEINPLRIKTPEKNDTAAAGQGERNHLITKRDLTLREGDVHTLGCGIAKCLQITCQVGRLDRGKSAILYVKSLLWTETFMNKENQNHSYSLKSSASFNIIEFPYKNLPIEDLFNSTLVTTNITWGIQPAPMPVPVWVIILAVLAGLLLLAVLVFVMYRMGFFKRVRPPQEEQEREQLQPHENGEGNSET
UniProt Q0VBD0: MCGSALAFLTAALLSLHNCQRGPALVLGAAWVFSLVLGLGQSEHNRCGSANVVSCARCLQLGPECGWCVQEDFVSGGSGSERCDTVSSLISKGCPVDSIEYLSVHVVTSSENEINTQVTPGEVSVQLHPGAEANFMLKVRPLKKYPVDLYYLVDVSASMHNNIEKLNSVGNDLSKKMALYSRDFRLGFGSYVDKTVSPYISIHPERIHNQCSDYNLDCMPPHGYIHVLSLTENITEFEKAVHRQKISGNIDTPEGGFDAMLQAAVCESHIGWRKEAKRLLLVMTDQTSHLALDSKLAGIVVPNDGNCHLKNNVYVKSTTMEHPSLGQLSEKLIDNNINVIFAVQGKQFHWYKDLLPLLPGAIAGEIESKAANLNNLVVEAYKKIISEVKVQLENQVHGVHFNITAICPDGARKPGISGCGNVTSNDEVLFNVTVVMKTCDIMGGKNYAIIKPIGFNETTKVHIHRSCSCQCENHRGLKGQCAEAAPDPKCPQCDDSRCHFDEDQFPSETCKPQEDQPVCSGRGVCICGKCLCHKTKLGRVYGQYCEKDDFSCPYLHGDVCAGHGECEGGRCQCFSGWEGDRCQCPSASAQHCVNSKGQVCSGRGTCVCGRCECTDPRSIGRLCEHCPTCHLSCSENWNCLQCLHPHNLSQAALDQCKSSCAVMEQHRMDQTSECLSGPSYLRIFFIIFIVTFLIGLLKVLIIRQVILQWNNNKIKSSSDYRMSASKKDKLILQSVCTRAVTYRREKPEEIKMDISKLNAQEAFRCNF

Results are given in words; binding and its absence hold for the method and conditions named. Some binding calls cover weakened binding; strength is not graded here.

B1: ADWA11 (antibody, V domains shown)
VH: EVQLQQSGAELVRPGAFVKLSCKASGFNIKDYYMNWVLQRPEQGLEWIGWIDPDNGNTIYDPKFQGKASITADTSSNTAYLQLSSLTSEDTAVYYCARRLLMDYWGQGTSVTVSS
VL: DIVMTQAAPSVPVTPGESVSISCRSTKSLLHFNGNTYLFWFLQRPGQSPQRLIYYMSNLASGVPDRFSGRGSGTDFTLRISRVEAEDVGVYYCMQSLEYPFTFGTGTKLEIK
For the molecule B1, the binding entry in assay [1] is given as “binds”.

B2: ADWA16-1 (antibody, V domains shown)
VH: EVQLVESGGGLVQPGGSLRLSCAVSGYIFSSYWVYWVRQAPGKGLEWVGYINPTTGYTEYADSVKGRFTISRDNSKNTLYLQMNSLRAEDTAVYYCATEGGNWEDYWGQGTLVTVSS
VL: DIQMTQSPSSLSASVGDRVTITCRASQDISNYINWYQQKPGKAPKLLIYYTSRLYSGVPSRFSGSGSGTDFTLTISSLQPEDFATYYCQQFSELPRTFGQGTKVEIK
B2: the binding entry in assay [2] and in assay [3] was “binds” in each case.

B3: ADWA16-3.2 (antibody, V domains shown)
VH: EVQLVESGGGLVQPGGSLRLSCAVSGYIFSSYWVYWVRQAPGKGLEWVGYISPTTGYTVYADSVKGRFTISRDNSKNTLYLQMNSLRAEDTAVYYCATEGGNWEDYWGQGTLVTVSS
VL: DIQMTQSPSSLSASVGDRVTITCRASQDISNYINWYQQKPGKAPKLLIYYTSRLYGGVPSRFSGSGSGTDFTLTISSLQPEDFATYYCQQFSELPRTFGQGTKVEIK
B3: the binding entry in assay [4], in assay [5], in assay [1], in assay [3], in assay [6] and in assay [7] was “binds” throughout.

B4: ADWA16-3 (antibody, V domains shown)
VH: EVQLVESGGGLVQPGGSLRLSCAVSGYIFSSYWVYWVRQAPGKGLEWVGYINPTTGYTEYADSVKGRFTISRDNSKNTLYLQMNSLRAEDTAVYYCATEGGNWEDYWGQGTLVTVSS
VL: DIQMTQSPSSLSASVGDRVTITCRASQDISNYINWYQQKPGKAPKLLIYYTSRLYGGVPSRFSGSGSGTDFTLTISSLQPEDFATYYCQQFSELPRTFGQGTKVEIK
Turning to B4, the binding result in assay [4], in assay [5], in assay [2] and in assay [3] was “binds” throughout.

B5: ADWA16-4 (antibody, V domains shown)
VH: EVQLVESGGGLVQPGGSLRLSCAVSGYIFSSYWVYWVRQAPGKGLEWVGYINPTTGYTEYADSVKGRFTISRDNSKNTLYLQMNSLRAEDTAVYYCATEGGNWEDYWGQGTLVTVSS
VL: DIQMTQSPSSLSASVGDRVTITCRASKDISNYINWYQQKPGKAPKLLIYYTSRLYGGVPSRFSGSGSGTDFTLTISSLQPEDFATYYCQQFSELPRTFGQGTKVEIK
B5: the binding entry in assay [2] and in assay [3] was “binds” each time.

B6: ADWA16-2 (antibody, V domains shown)
VH: EVQLVESGGGLVQPGGSLRLSCAVSGYIFSSYWVYWVRQAPGKGLEWVGYINPTTGYTEYADSVKGRFTISRDNSKNTLYLQMNSLRAEDTAVYYCATEGGNWEDYWGQGTLVTVSS
VL: DIQMTQSPSSLSASVGDRVTITCRASKDISNYLNWYQQKPGKAPKLLIYYTSRLYSGVPSRFSGSGSGTDFTLTISSLQPEDFATYYCQQFSELPRTFGQGTKVEIK
Turning to B6, the binding result in assay [2] and in assay [3] was “binds” each time.

B7: ADWA16-chimera (antibody, V domains shown)
VH: QVQLQQSGAELAKPGASMKMSCKASGYTFSSYWIYWVKQRPGQGLEWIGYINPTTGYTEYNQKFRDKATLTADKSSNTAYMQLSSLTSEDSAVYYCATEGGNWEDYWGQGTTLTVSS
VL: DIQMTQTTSSLSASLGDRVTISCRASQDISNYLNWYQQKPDGTVKLLIYYTSRLYSGVPSRFSGSGSGTDYSLTISNLEPKDIATYYCQQFSELPRTFGGGTKLEIK
For B7, the binding entry in assay [2] is on record as “binds”.

B8: ADWA16 (antibody, V domains shown)
VH: QVQLQQSGAELAKPGASMKMSCKASGYTFSSYWIYWVKQRPGQGLEWIGYINPTTGYTEYNQKFRDKATLTADKSSNTAYMQLSSLTSEDSAVYYCATEGGNWEDYWGQGTTLTVSS
VL: DIQMTQTTSSLSASLGDRVTISCRASQDISNYLNWYQQKPDGTVKLLIYYTSRLYSGVPSRFSGSGSGTDYSLTISNLEPKDIATYYCQQFSELPRTFGGGTKLEIK
As for B8, the binding result in assay [1] was “binds”.

The record behind these values is patent publication US20240425601A1 (University of California, published 2024).
